Assay results: PMC7195483
Results are given in words; binding and its absence hold for the method and conditions named. For some of these results: In cells and extracts the contact can be indirect. Some entries that bind do so weakly or less than the wild type. Tags and fused reporters may be left off the sequences shown.

What was measured:
[1] = biological target: T1, FLAG-tagged full-length Set1 (S. cerevisiae) (UniProt P38827); experiment: co-IP; yeast whole-cell lysate (3 mg), anti-DYKDDDDK agarose beads overnight at 4 °C, 50 mM HEPES-KOH pH 7.5, 150 mM NaCl, 0.1% Triton X-100; immunoblot; set1Δ cells, also swd2Δ, paf1Δ, rtf1Δ and bre1Δ backgrounds
T1 sequence: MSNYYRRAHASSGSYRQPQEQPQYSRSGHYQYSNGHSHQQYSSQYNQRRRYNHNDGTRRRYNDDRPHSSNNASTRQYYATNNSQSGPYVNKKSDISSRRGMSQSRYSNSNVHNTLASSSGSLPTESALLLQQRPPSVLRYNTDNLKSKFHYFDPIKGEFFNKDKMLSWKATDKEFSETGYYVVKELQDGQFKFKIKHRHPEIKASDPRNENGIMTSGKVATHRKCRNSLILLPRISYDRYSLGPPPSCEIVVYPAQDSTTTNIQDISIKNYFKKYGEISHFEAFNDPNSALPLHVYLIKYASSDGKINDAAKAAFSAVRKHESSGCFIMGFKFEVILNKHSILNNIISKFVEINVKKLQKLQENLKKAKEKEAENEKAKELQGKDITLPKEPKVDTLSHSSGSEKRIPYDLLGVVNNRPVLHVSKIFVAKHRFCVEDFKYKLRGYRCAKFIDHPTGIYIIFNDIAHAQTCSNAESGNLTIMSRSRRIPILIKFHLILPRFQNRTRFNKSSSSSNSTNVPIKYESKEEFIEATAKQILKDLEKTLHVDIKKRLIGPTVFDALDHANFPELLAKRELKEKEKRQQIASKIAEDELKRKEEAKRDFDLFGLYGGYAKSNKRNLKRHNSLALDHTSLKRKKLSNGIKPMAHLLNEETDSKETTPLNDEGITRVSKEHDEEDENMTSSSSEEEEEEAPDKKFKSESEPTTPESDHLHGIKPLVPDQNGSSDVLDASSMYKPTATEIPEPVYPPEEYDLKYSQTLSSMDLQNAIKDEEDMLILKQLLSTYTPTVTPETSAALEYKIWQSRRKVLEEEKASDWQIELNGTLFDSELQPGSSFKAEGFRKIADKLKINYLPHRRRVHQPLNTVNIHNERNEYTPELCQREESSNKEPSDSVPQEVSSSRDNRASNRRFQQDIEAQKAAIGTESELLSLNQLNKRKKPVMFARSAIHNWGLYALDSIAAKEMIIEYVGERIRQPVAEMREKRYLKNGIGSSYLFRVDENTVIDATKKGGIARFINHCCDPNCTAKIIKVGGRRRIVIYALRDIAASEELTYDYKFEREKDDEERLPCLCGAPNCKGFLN

[2] = biological target: T2, FLAG-tagged Set1, baculovirus-expressed (bait of the reconstituted Set1/COMPASS) (S. cerevisiae) (UniProt P38827); experiment: co-IP; Set1 complexes reconstituted in Sf9 cells by co-infection with baculoviruses, affinity purified on M2 (anti-FLAG) agarose; Coomassie staining and anti-FLAG, anti-HA immunoblots
T2 sequence: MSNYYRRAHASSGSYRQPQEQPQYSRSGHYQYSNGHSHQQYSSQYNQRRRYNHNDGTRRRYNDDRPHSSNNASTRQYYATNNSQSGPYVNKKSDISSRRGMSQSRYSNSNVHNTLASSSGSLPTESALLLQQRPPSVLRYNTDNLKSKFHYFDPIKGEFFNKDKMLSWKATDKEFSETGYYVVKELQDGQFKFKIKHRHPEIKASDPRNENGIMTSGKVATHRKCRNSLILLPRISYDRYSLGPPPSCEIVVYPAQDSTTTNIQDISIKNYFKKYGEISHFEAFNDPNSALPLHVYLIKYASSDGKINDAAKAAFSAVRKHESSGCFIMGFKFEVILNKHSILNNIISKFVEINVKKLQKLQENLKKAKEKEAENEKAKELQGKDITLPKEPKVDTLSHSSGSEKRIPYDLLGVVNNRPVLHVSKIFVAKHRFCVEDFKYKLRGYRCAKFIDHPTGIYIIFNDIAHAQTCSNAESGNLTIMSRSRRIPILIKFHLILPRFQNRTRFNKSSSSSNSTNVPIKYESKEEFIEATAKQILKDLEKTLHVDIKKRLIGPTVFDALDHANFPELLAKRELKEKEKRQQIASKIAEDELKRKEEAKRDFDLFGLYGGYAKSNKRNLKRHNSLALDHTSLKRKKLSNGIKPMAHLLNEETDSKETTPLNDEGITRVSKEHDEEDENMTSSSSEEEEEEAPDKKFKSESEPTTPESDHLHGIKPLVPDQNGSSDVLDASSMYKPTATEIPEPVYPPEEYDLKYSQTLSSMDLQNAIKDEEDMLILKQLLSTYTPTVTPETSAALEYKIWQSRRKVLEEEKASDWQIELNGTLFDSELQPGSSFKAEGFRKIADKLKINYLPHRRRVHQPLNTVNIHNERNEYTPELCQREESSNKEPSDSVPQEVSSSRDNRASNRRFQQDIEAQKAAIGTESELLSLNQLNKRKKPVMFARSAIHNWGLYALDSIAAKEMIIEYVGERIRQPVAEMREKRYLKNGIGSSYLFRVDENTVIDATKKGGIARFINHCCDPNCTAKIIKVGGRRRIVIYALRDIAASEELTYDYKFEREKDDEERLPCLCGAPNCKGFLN

[3] = biological target: T3, Set1 fragment F1 (aa 1–236) fused to Gal4 BD (S. cerevisiae) (UniProt P38827); experiment: two-hybrid; Gal4 BD fusions with Gal4 AD fusions in reporter strains PJ69-4A or CG1945; HIS3 and ADE2 reporters, scored after 2 or 3 days; 5 or 20 mM 3-AT for stringency; also in PJ69-4A with wild-type or F250A Swd2 (reduced in F250A)
T3 sequence: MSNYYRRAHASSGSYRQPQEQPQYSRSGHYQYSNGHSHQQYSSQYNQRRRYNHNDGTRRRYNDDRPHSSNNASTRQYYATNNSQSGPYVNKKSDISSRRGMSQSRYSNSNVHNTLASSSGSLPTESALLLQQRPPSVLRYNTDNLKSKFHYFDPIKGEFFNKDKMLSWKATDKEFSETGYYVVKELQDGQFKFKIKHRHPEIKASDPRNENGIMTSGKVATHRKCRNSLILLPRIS

B1: Swd2–HA (protein, UniProt P36104 1-329)
chain: MTTVSINKPNLLKFKHVKSFQPQEKDCGPVTSLNFDDNGQFLLTSSSNDTMQLYSATNCKFLDTIASKKYGCHSAIFTHAQNECIYSSTMKNFDIKYLNLETNQYLRYFSGHGALVNDLKMNPVNDTFLSSSYDESVRLWDLKISKPQVIIPSLVPNCIAYDPSGLVFALGNPENFEIGLYNLKKIQEGPFLIIKINDATFSQWNKLEFSNNGKYLLVGSSIGKHLIFDAFTGQQLFELIGTRAFPMREFLDSGSACFTPDGEFVLGTDYDGRIAIWNHSDSISNKVLRPQGFIPCVSHETCPRSIAFNPKYSMFVTADETVDFYVYDE
B1 was tested, and the binding [1] was “binds”.

B2: Swd2 wild-type, HA-tagged, baculovirus-expressed (protein, UniProt P36104 1-329)
chain: MTTVSINKPNLLKFKHVKSFQPQEKDCGPVTSLNFDDNGQFLLTSSSNDTMQLYSATNCKFLDTIASKKYGCHSAIFTHAQNECIYSSTMKNFDIKYLNLETNQYLRYFSGHGALVNDLKMNPVNDTFLSSSYDESVRLWDLKISKPQVIIPSLVPNCIAYDPSGLVFALGNPENFEIGLYNLKKIQEGPFLIIKINDATFSQWNKLEFSNNGKYLLVGSSIGKHLIFDAFTGQQLFELIGTRAFPMREFLDSGSACFTPDGEFVLGTDYDGRIAIWNHSDSISNKVLRPQGFIPCVSHETCPRSIAFNPKYSMFVTADETVDFYVYDE
With B2 the binding [2] was “binds”.

B3: Swd2–F250A mutant, HA-tagged, baculovirus-expressed (protein, UniProt P36104 1-329)
chain: MTTVSINKPNLLKFKHVKSFQPQEKDCGPVTSLNFDDNGQFLLTSSSNDTMQLYSATNCKFLDTIASKKYGCHSAIFTHAQNECIYSSTMKNFDIKYLNLETNQYLRYFSGHGALVNDLKMNPVNDTFLSSSYDESVRLWDLKISKPQVIIPSLVPNCIAYDPSGLVFALGNPENFEIGLYNLKKIQEGPFLIIKINDATFSQWNKLEFSNNGKYLLVGSSIGKHLIFDAFTGQQLFELIGTRAFPMREALDSGSACFTPDGEFVLGTDYDGRIAIWNHSDSISNKVLRPQGFIPCVSHETCPRSIAFNPKYSMFVTADETVDFYVYDE
For B3, the binding [2] was “binds”.

B4: Swd2 Gal4 AD fusion (protein, UniProt P36104 1-329)
chain: MTTVSINKPNLLKFKHVKSFQPQEKDCGPVTSLNFDDNGQFLLTSSSNDTMQLYSATNCKFLDTIASKKYGCHSAIFTHAQNECIYSSTMKNFDIKYLNLETNQYLRYFSGHGALVNDLKMNPVNDTFLSSSYDESVRLWDLKISKPQVIIPSLVPNCIAYDPSGLVFALGNPENFEIGLYNLKKIQEGPFLIIKINDATFSQWNKLEFSNNGKYLLVGSSIGKHLIFDAFTGQQLFELIGTRAFPMREFLDSGSACFTPDGEFVLGTDYDGRIAIWNHSDSISNKVLRPQGFIPCVSHETCPRSIAFNPKYSMFVTADETVDFYVYDE
In the case of B4, the binding [3] is reported as “binds”.
